# The list shows a part of the results.
# B1: Epa3to2 (Candida glabrata) (protein)
# chain: MGSSHHHHHHSSGLVPRGSHMKRELSSQNPFGYPIGCSPQDVAIIPGLTMELYSYPIVSGTPPNCYDASYVDPEYPRTGYLKRKMVGKSTGVTGNLNYKYSVEKACMVKYGNLPAGYNYNEPLTVSNFTMILYGYFKAQTTGLHTFFVNADDLLYINFGAGNAFDCCKREDSKTKLGEYVAYDIWHVDSSKNKVSLFLEKDLYYPIRMFFNNRDNNSSLDLSFSVNGATDQISDFSGYLYSVPDQPDTCPAHIGYDTTCR
# Assays:
# Experiment in all cases: glycan array binding signal (z-score within array); higher = stronger binding
# Settings in all cases: glycan notation: IUPAC condensed, linker removed
# Gal(a1-3)Gal(b1-3)GlcNAc = biological target: Gal(a1-3)Gal(b1-3)GlcNAc
# How it was run: (§1)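 The binding signal is a Z-score computed within each array and averaged over linkers. Arrays of the same protein sequence at different concentrations or buffers were also averaged together. Data originate from 3228 arrays in the Consortium for Functional Glycomics database, kept only where the protein sequence was available.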
# [1] = biological target: Gal(a1-3)Gal(b1-3)GlcNAc(b1-2)Man
# How it was run: as §1
# [2] = biological target: Gal(a1-3)Gal(b1-3)GlcNAc(b1-2)Man(a1-3)[Gal(a1-3)Gal(b1-3)GlcNAc(b1-2)Man(a1-6)]Man(b1-4)GlcNAc(b1-4)GlcNAc
# How it was run: as §1
# [3] = biological target: Gal(a1-3)Gal(b1-3)GlcNAc(b1-3)GalNAc
# How it was run: as §1
# [4] = biological target: Gal(a1-3)Gal(b1-3)GlcNAc(b1-6)GalNAc
# How it was run: as §1
# [5] = biological target: Gal(a1-3)Gal(b1-3)[Fuc(a1-4)]GlcNAc(b1-2)Man(a1-3)[Gal(a1-3)Gal(b1-3)[Fuc(a1-4)]GlcNAc(b1-2)Man(a1-6)]Man(b1-4)GlcNAc(b1-4)GlcNAc
# How it was run: as §1
# Gal(a1-3)Gal(b1-4)Glc = biological target: Gal(a1-3)Gal(b1-4)Glc
# How it was run: as §1
# Gal(a1-3)Gal(b1-4)GlcNAc = biological target: Gal(a1-3)Gal(b1-4)GlcNAc
# How it was run: as §1
# [6] = biological target: Gal(a1-3)Gal(b1-4)GlcNAc(b1-2)Man
# How it was run: as §1
# [7] = biological target: Gal(a1-3)Gal(b1-4)GlcNAc(b1-2)Man(a1-3)[Gal(a1-3)Gal(b1-4)GlcNAc(b1-2)Man(a1-6)]Man(b1-4)GlcNAc(b1-4)GlcNAc
# How it was run: as §1
# [8] = biological target: Gal(a1-3)Gal(b1-4)GlcNAc(b1-3)GalNAc
# How it was run: as §1
# [9] = biological target: Gal(a1-3)Gal(b1-4)GlcNAc(b1-6)GalNAc
# How it was run: as §1
# [10] = biological target: Gal(a1-3)Gal(b1-4)[Fuc(a1-3)]GlcNAc
# How it was run: as §1
# [11] = biological target: Gal(a1-3)Gal(b1-4)[Fuc(a1-3)]GlcNAc(b1-2)Man(a1-3)[Gal(a1-3)Gal(b1-4)[Fuc(a1-3)]GlcNAc(b1-2)Man(a1-6)]Man(b1-4)GlcNAc(b1-4)GlcNAc
# How it was run: as §1
# Gal(a1-3)GalNAc = biological target: Gal(a1-3)GalNAc
# How it was run: as §1
# [12] = biological target: Gal(a1-3)[Gal(a1-4)]Gal(b1-4)GlcNAc
# How it was run: as §1
# [13] = biological target: Gal(a1-4)Gal(b1-3)GlcNAc(b1-2)Man(a1-3)[Gal(a1-4)Gal(b1-3)GlcNAc(b1-2)Man(a1-6)]Man(b1-4)GlcNAc(b1-4)GlcNAc
# How it was run: as §1
# Gal(a1-4)Gal(b1-4)Glc = biological target: Gal(a1-4)Gal(b1-4)Glc
# How it was run: as §1
# Gal(a1-4)Gal(b1-4)GlcNAc = biological target: Gal(a1-4)Gal(b1-4)GlcNAc
# How it was run: as §1
# [14] = biological target: Gal(a1-4)Gal(b1-4)GlcNAc(b1-2)Man(a1-3)[Gal(a1-4)Gal(b1-4)GlcNAc(b1-2)Man(a1-6)]Man(b1-4)GlcNAc(b1-4)GlcNAc
# How it was run: as §1
# [15] = biological target: Gal(a1-4)Gal(b1-4)GlcNAc(b1-3)Gal(b1-4)Glc
# How it was run: as §1
# Gal(a1-4)GlcNAc = biological target: Gal(a1-4)GlcNAc
# How it was run: as §1
# Gal(a1-6)Glc = biological target: Gal(a1-6)Glc
# How it was run: as §1
# Gal(b1-2)Gal = biological target: Gal(b1-2)Gal
# How it was run: as §1
# Gal(b1-3)Gal = biological target: Gal(b1-3)Gal
# How it was run: as §1
# Gal(b1-3)Gal(b1-4)GlcNAc = biological target: Gal(b1-3)Gal(b1-4)GlcNAc
# How it was run: as §1
# Gal(b1-3)GalNAc = biological target: Gal(b1-3)GalNAc
# How it was run: as §1
# [16] = biological target: Gal(b1-3)GalNAc(a1-3)[Fuc(a1-2)]Gal(b1-4)Glc
# How it was run: as §1
# [17] = biological target: Gal(b1-3)GalNAc(a1-3)[Fuc(a1-2)]Gal(b1-4)GlcNAc
# How it was run: as §1
# Gal(b1-3)GalNAc(b1-3)Gal = biological target: Gal(b1-3)GalNAc(b1-3)Gal
# How it was run: as §1
# [18] = biological target: Gal(b1-3)GalNAc(b1-3)Gal(a1-4)Gal(b1-4)Glc
# How it was run: as §1
# [19] = biological target: Gal(b1-3)GalNAc(b1-4)Gal(b1-4)Glc
# How it was run: as §1
# [20] = biological target: Gal(b1-3)GalNAc(b1-4)[Neu5Ac(a2-3)]Gal(b1-4)Glc
# How it was run: as §1
# Gal(b1-3)GlcNAc = biological target: Gal(b1-3)GlcNAc
# How it was run: as §1
# [21] = biological target: Gal(b1-3)GlcNAc(a1-3)Gal(b1-4)GlcNAc
# How it was run: as §1
# [22] = biological target: Gal(b1-3)GlcNAc(a1-6)Gal(b1-4)GlcNAc
# How it was run: as §1
# Gal(b1-3)GlcNAc(b1-2)Man = biological target: Gal(b1-3)GlcNAc(b1-2)Man
# How it was run: as §1
# [23] = biological target: Gal(b1-3)GlcNAc(b1-2)Man(a1-3)[Gal(b1-3)GlcNAc(b1-2)Man(a1-6)]Man(b1-4)GlcNAc(b1-4)GlcNAc
# How it was run: as §1
binder,measurement,setting,value
B1,glycan array binding signal (z-score),Gal(a1-3)Gal(b1-3)GlcNAc,-0.139
same,glycan array binding signal (z-score),[1],-0.118
same,glycan array binding signal (z-score),[2],0.351
same,glycan array binding signal (z-score),[3],0.158
same,glycan array binding signal (z-score),[4],0.109
same,glycan array binding signal (z-score),[5],-0.734
same,glycan array binding signal (z-score),Gal(a1-3)Gal(b1-4)Glc,-0.693
same,glycan array binding signal (z-score),Gal(a1-3)Gal(b1-4)GlcNAc,-0.462
same,glycan array binding signal (z-score),[6],-0.911
same,glycan array binding signal (z-score),[7],-0.05
same,glycan array binding signal (z-score),[8],0.51
same,glycan array binding signal (z-score),[9],0.403
same,glycan array binding signal (z-score),[10],-0.662
same,glycan array binding signal (z-score),[11],0.812
same,glycan array binding signal (z-score),Gal(a1-3)GalNAc,-0.609
same,glycan array binding signal (z-score),[12],0.19
same,glycan array binding signal (z-score),[13],1.14
same,glycan array binding signal (z-score),Gal(a1-4)Gal(b1-4)Glc,0.552
same,glycan array binding signal (z-score),Gal(a1-4)Gal(b1-4)GlcNAc,0.54
same,glycan array binding signal (z-score),[14],1.02
same,glycan array binding signal (z-score),[15],-0.122
same,glycan array binding signal (z-score),Gal(a1-4)GlcNAc,0.908
same,glycan array binding signal (z-score),Gal(a1-6)Glc,-0.555
same,glycan array binding signal (z-score),Gal(b1-2)Gal,-0.498
same,glycan array binding signal (z-score),Gal(b1-3)Gal,1.43
same,glycan array binding signal (z-score),Gal(b1-3)Gal(b1-4)GlcNAc,-0.279
same,glycan array binding signal (z-score),Gal(b1-3)GalNAc,0.472
same,glycan array binding signal (z-score),[16],0.116
same,glycan array binding signal (z-score),[17],0.294
same,glycan array binding signal (z-score),Gal(b1-3)GalNAc(b1-3)Gal,-0.825
same,glycan array binding signal (z-score),[18],0.664
same,glycan array binding signal (z-score),[19],1.46
same,glycan array binding signal (z-score),[20],-0.383
same,glycan array binding signal (z-score),Gal(b1-3)GlcNAc,-0.751
same,glycan array binding signal (z-score),[21],-0.807
same,glycan array binding signal (z-score),[22],0.817
same,glycan array binding signal (z-score),Gal(b1-3)GlcNAc(b1-2)Man,-0.927
same,glycan array binding signal (z-score),[23],1.76

# Retrieved one by one from the list above, 2 records:
binder,measurement,setting,value
B1,glycan array binding signal (z-score),Gal(a1-3)Gal(b1-4)Glc,-0.693
same,glycan array binding signal (z-score),Gal(a1-4)Gal(b1-4)Glc,0.552
